Source: PubChem BioAssay AID2551 (National Center for Advancing Translational Sciences (NCATS), 2010)
Out of some 310,000 compounds screened, about 17,000 (5.5%) were called active. This list was built around the results that the source calls inconclusive (neither active nor inactive); the mix of calls is not that of the screen. The call rests on the fitted dose curve; in most records, active means well fitted inhibition curve with a large enough effect; inconclusive means small, poorly fitted or top-dose-only effect, or effect the other way; inactive means no such curve, though single readings can be large or run the other way. Where the call is inconclusive, the potency comes from a doubtful curve fit. The source holds several records for some structures; these can differ, active in one and inactive in another.

Sequences of proteins named here, by UniProt entry; tags and fusion partners are left off. A change or cut given only in a name is not applied to a line headed by its entry.
UniProt P51450: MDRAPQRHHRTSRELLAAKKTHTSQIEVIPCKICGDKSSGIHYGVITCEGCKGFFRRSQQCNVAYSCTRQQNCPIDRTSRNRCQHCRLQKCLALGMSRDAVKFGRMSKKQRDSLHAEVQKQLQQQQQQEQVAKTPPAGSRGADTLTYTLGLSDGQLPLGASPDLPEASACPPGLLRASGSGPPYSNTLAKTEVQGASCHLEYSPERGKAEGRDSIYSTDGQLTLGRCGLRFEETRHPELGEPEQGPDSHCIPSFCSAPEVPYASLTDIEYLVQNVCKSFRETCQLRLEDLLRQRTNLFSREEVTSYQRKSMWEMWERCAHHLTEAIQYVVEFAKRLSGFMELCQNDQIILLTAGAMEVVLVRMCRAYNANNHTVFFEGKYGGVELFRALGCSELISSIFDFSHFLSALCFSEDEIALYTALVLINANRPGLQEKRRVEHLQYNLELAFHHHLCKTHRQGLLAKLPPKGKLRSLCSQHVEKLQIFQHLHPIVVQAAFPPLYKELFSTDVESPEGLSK

Target: Nuclear receptor ROR-gamma (Mus musculus) (UniProt P51450)
Assay: qHTS for inhibitors of ROR gamma transcriptional activity; further: nearly all actives have a fitted effect of over 60% in size
Conditions: Drosophila S2 Gal4-RORgamma UAS-luciferase reporter, 20 h; activity change, negative = inhibition: at 53.6 µM (top of the series)
Summary of the method: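 Drosophila Schneider cells stably carrying a metallothionein-driven Gal4 DBD–ROR gamma fusion and a UAS-Photinus luciferase reporter were exposed to compound for 1 hr, then induced with copper sulfate (700 uM final) for 20 hr at ambient temperature before luminescence reading.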
On the % scale 0 is the no-effect control and ±100 the full control effect; potency means the concentration at half of the fitted maximal effect.

Structure (SMILES) | Potency | activity change, negative = inhibition
CCOC(=O)CCCNS(=O)(=O)c1c(C)ccc2nsnc12 | inconclusive: 3.98 µM [activator, partial curve] | –
Cc1cccc(C(=O)NNC(=O)C23CC4CC(CC(C4)C2)C3)c1O | active: 6.31 µM | –
CCCCCCCCC(=O)N/N=C(\C)c1ccco1 | inconclusive: 11.2 µM [activator, partial curve] | –
O=C(c1ccccc1)N1CC(COc2ccccc2)OC(c2cccnc2)O1 (configuration not stated) | inconclusive: 20 µM [activator, partial curve, poor fit] | –
Cc1cccc(C)c1OCCCCCNCCO | – | inactive: -0.319%
N/C(=N\OC(=O)C(c1ccccc1)c1ccccc1)c1cccnc1 | inconclusive: 35.5 µM [activator, single point] | –
S=c1[nH]nc(-c2ccncc2)n1Cc1ccccc1 | active: 12.6 µM | –
O=C(CCC(=O)N1CCOc2ccccc21)Nc1ccccc1Br | – | inactive: -33.5%
CCC(C)Nc1nc(OC)nc(N(C)C#N)n1 (configuration not stated) | – | inactive: 11.5% [at 10 µM]
CCOc1ccc(N=C(NC#N)SCC)cc1 | inconclusive: 3.55 µM [activator, partial curve] | –
O=C(CSc1nnc2c(n1)[nH]c1ccccc12)Nc1ccc2c(c1)OCO2 | – | inactive: -5.09%
Cc1cccc(Cn2c(C(=O)OC(C)C)cc3c2ccn3C)c1 | – | inactive: -22.6%
O=C(NCc1nc2ccccc2[nH]1)C1=C[C@H](c2ccccc2)C[C@H](OCc2ccc(CO)cc2)O1 | inconclusive: 14.1 µM [inhibitor, partial curve] | –
CC(=O)Oc1ccc(N(C(C)=O)S(=O)(=O)c2ccc(Cl)cc2)c2ccccc12 | inconclusive: 0.316 µM [inhibitor, partial curve, poor fit] | –
O=C(O)c1ccc(N/N=C/c2cc3cc4c(cc3nc2Cl)OCCO4)cc1 | active: 2.51 µM | –
Cc1ccc(C(=O)c2oc3ccccc3c2N)cc1 | – | inactive: 37.5%
C=CCn1c(SCC(=O)c2[nH]c(C)c(C(=O)OCC)c2C)nc2scc(-c3ccc(OC)c(OC)c3)c2c1=O | active: 10 µM | –
BrC(=C\c1ccccc1)/C=N/Nc1nc2ccccc2[nH]1 | active: 3.16 µM | –
Cc1cccc(NC(=O)c2cnc3scc(C)n3c2=O)c1 | inconclusive: 0.158 µM [activator, single point] | –
C#CC(C)(CC)NC(=O)Cn1nnc(-c2cccc(C(F)(F)F)c2)n1 (configuration not stated) | inconclusive: 22.4 µM [activator, single point] | –
CCn1cc(CNCc2cn[nH]c2-c2cc3ccccc3o2)cn1 | – | inactive: 28.2%
N#Cc1c(C(F)(F)F)cc(-c2cccc(Cl)c2)[nH]c1=O | inconclusive: 11.2 µM [activator, single point] | –
CCOC(=O)C1CCN(C(=O)Nc2ccc(Cl)cc2)CC1 | inconclusive: 5.62 µM [inhibitor, single point] | –
CCCCCOC(=O)c1[nH]c2c(c1C)C(=O)C(C(=O)OC)C(C)C2 (configuration not stated) | inconclusive: 17.8 µM [activator, single point] | –

Record cards, as listed above. Order of values: Potency	activity change, negative = inhibition
CCOC(=O)C1CCN(C(=O)Nc2ccc(Cl)cc2)CC1 in the list: inconclusive: 5.62 µM [inhibitor, single point]	–
N/C(=N\OC(=O)C(c1ccccc1)c1ccccc1)c1cccnc1 in the list: inconclusive: 35.5 µM [activator, single point]	–
O=C(NCc1nc2ccccc2[nH]1)C1=C[C@H](c2ccccc2)C[C@H](OCc2ccc(CO)cc2)O1 in the list: inconclusive: 14.1 µM [inhibitor, partial curve]	–

More structures

Structure (SMILES) | Potency | activity change, negative = inhibition
CCCC(=O)NC(=S)Nc1ccccc1OC | active: 10 µM | –
COCC1CCN(C(=O)c2ccc3oc(CCCc4ccccc4)nc3c2)C1 (configuration not stated) | inconclusive: 7.94 µM [activator, partial curve] | –
CCOC(=O)c1cnc(-n2cc(C)cn2)nc1NCc1ccc2c(c1)OCO2 | active: 12.6 µM | –
COc1ccc(N2C(=O)CC(Sc3n[nH]c(-c4ccc(C)cc4)n3)C2=O)cc1 (configuration not stated) | active: 20 µM | –
CSc1ccc(-c2sc(Nc3cccc4ccccc34)n[n+]2-c2ccccc2)cc1 | inconclusive: 17.8 µM [inhibitor, single point] | –
CC1CCC(NC(=O)c2ccc3c(c2)OCO3)CC1 (configuration not stated) | active: 10 µM | –
COc1cc(C(C)=O)ccc1OCCCOc1cccc2cccnc12 | inconclusive: 10 µM [activator, partial curve] | –
COc1ccc(NS(=O)(=O)c2cccc(NC(=O)c3ccc(Cl)nc3)c2)cc1 | inconclusive: 6.31 µM [inhibitor, full curve, poor fit] | –
Cc1ccn2cc(CC(=O)O)nc2c1 | – | inactive: -11.9%
c1ccc2c(c1)Cc1cc3ccccc3nc1-2 | active: 11.2 µM | –
N[C@@H](Cn1cc(I)c(=O)n(Cc2ccc(C(=O)O)cc2)c1=O)C(=O)O | – | inactive: 0.739%
O=C(C1CCCN(S(=O)(=O)c2ccc(F)cc2)C1)N(Cc1cccs1)C1CC1 (configuration not stated) | inconclusive: 6.31 µM [activator, partial curve] | –
O=C(Nc1ccc(Br)cc1)C1CC(c2c(F)cccc2Cl)=NO1 (configuration not stated) | inconclusive: 31.6 µM [activator, single point] | –
Cc1cccc(NC(=O)c2ccc(COc3ccc(Cl)cc3Cl)o2)n1 | inconclusive: 31.6 µM [activator, single point] | –
Cc1nnc(N2CCC(C(=O)N3CCCCCC3)CC2)c2nn(-c3ccc(Cl)cc3)c(C)c12 | – | inactive: 2.06%
Cc1cc(N2CCC(C(=O)Nc3ccc(F)cc3)CC2)nc(-c2ccccc2)n1 | inconclusive: 35.5 µM [activator, single point] | –
CN(Cc1ccc(F)cc1)C(=O)c1cc(COc2ccc(-n3cncn3)cc2)on1 | inconclusive: 14.1 µM [activator, partial curve] | –
CC1(C)CC(=O)C2=C(C1)N1C(=C(C#N)C2c2ccccc2Cl)N=C(N)c2ccccc21 (configuration not stated) | inconclusive: 11.2 µM [activator, partial curve, poor fit] | –
O=C(Nc1ccccc1)Nc1cccc(Cl)c1Cl | inconclusive: 35.5 µM [activator, single point] | –
COc1ccc(Cl)cc1/C=N/NC(=O)c1c(-c2ccccc2)noc1C | inconclusive: 22.4 µM [inhibitor, partial curve, poor fit] | –
Cc1cccc(-c2cc3nc(-c4ccccc4)cc(=O)n3[nH]2)c1 | inconclusive: 12.6 µM [inhibitor, single point] | –
Cc1cccc(S(=O)(=O)N2CN(Cc3ccco3)c3nc4ccccc4nc32)c1 | inconclusive: 31.6 µM [activator, single point] | –
c1csc(CNCc2ccncc2)c1 | – | inactive: -13.8%
